Experimental data: PubChem BioAssay AID1224828 (NIAID, 2016)
The deposit covers about 17,000 reagents; shown is a part drawn at random. 762 of all reagents (4.5%) were called active. 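Active calls include both raised and lowered p65 entry, mostly lowered; wells with fewer than 50 cells lack a z-score.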 The raw values are shown without normalisation. No sequences are given here.

Screen: 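Find genes required for NF-kappaB p65 moving into the nucleus after LPS in mouse macrophages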 (primary screen)
Cells: mouse RAW264.7 G9 macrophage reporter cells (GFP-p65, Tnf promoter-mCherry)
Reagents: siRNA pool against mouse genes, 100 nM
Time to read-out: 2 days siRNA transfection, then 40 min LPS before fixation
Conditions: LPS (Salmonella minnesota R595) at 10 ng/ml
Measured: 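Imaged p65 nuclear translocation ratio, normalised to the plate median, converted to robust z-scores and averaged across two replicates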
Direction: p65 translocation robust z-score: higher = more nuclear NF-kappaB p65 after LPS than the plate median; nuclear/cytoplasmic p65 ratio: higher = more nuclear NF-kappaB p65
Rule for the call: 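Called active when z exceeds 3.3 or falls under -1.56 (median of Tlr4 controls), giving activity score of at least 50; no calls for control wells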
Meaning of the calls: active = hit (p65 shift raised or lowered); inactive = no clear change

gene	p65 translocation robust z-score	nuclear/cytoplasmic p65 ratio, rep 1	nuclear/cytoplasmic p65 ratio, rep 2	low cell count flag	call
Flt3l (FMS-like tyrosine kinase 3 ligand)	1.23	1.61	1.51	enough cells to score	inactive
Zfp879 (zinc finger protein 879)	0.14	1.49	1.51	enough cells to score	inactive
Atoh8 (atonal bHLH transcription factor 8)	1.71	1.96	1.78	enough cells to score	inactive
Cep15 (centrosomal protein 15)	-1.47	1.16	1.03	enough cells to score	inactive
Or5p80 (olfactory receptor family 5 subfamily P member 80)		1.49	1.29	fewer than 50 cells per well; well left out of scoring	inactive
Pde6g (phosphodiesterase 6G, cGMP-specific, rod, gamma)	0.58	1.42	1.47	enough cells to score	inactive
Cntnap2 (contactin associated protein-like 2)	1.06	1.62	1.51	enough cells to score	inactive
Pla2g2e (phospholipase A2, group IIE)	0.94	1.59	1.56	enough cells to score	inactive
Gp5 (glycoprotein 5 platelet)	-0.63	1.31	1.33	enough cells to score	inactive
Gnb4 (guanine nucleotide binding protein (G protein), beta 4)	0.79	1.6	1.72	enough cells to score	inactive

2 entries already listed, arranged by “nuclear/cytoplasmic p65 ratio, rep 1”, high to low:
gene	p65 translocation robust z-score	nuclear/cytoplasmic p65 ratio, rep 1	nuclear/cytoplasmic p65 ratio, rep 2	low cell count flag	call
Atoh8 (atonal bHLH transcription factor 8)	1.71	1.96	1.78	enough cells to score	inactive
Cep15 (centrosomal protein 15)	-1.47	1.16	1.03	enough cells to score	inactive

Additional records follow.
gene	p65 translocation robust z-score	nuclear/cytoplasmic p65 ratio, rep 1	nuclear/cytoplasmic p65 ratio, rep 2	low cell count flag	call
Man1a (mannosidase 1, alpha)	-1.37	1.51	1.4	enough cells to score	inactive
Rgs16 (regulator of G-protein signaling 16)	-0.58	1.36	1.57	enough cells to score	inactive
Tmem17 (transmembrane protein 17)	-1.1	1.22	1.18	enough cells to score	inactive
Mgst2 (microsomal glutathione S-transferase 2)	0.37	1.71	1.66	enough cells to score	inactive
Erg28 (ergosterol biosynthesis 28)	0.32	1.56	1.51	enough cells to score	inactive
BC030500 (cDNA sequence BC030500)	-1.44	1.31	1.66	enough cells to score	inactive
Asb11 (ankyrin repeat and SOCS box-containing 11)	-0.51	1.57	1.4	enough cells to score	inactive
Krtap9-3 (keratin associated protein 9-3)	-0.73	1.27	1.22	enough cells to score	inactive
Cdkn2aip (CDKN2A interacting protein)	1.44	1.55	1.33	enough cells to score	inactive
Psrc1 (proline/serine-rich coiled-coil 1)	0.19	1.6	1.69	enough cells to score	inactive
Gatad1 (GATA zinc finger domain containing 1)		1.73	1.35	fewer than 50 cells per well; well left out of scoring	inactive
Or52n2b (olfactory receptor family 52 subfamily N member 2B)	0.68	1.61	1.29	enough cells to score	inactive
Gpd1 (glycerol-3-phosphate dehydrogenase 1 (soluble))	0.27	1.41	1.47	enough cells to score	inactive
Hivep2	-0.72	1.28	1.3	enough cells to score	inactive
